Results from PMC4718636.
Results are given in words; binding and its absence hold for the method and conditions named. Some binding calls cover weakened binding; strength is not graded here. Tags and fused reporters may be left off the sequences shown.

Molecular target: GST-hAgo2 (human Argonaute2) (human), Q9UKV8
Experiment: pull-down; pulldown assays shown only in Figure I of the S1 Supporting Information File; format not given; both purified
Conditions: remark: other sources report otherwise

B1: His-hTRBP (human TAR RNA-binding protein), purified under native conditions, Q15633 1-366 (protein)
chain: MSEEEQGSGTTTGCGLPSIEQMLAANPGKTPISLLQEYGTRIGKTPVYDLLKAEGQAHQPNFTFRVTVGDTSCTGQGPSKKAAKHKAAEVALKHLKGGSMLEPALEDSSSFSPLDSSLPEDIPVFTAAAAATPVPSVVLTRSPPMELQPPVSPQQSECNPVGALQELVVQKGWRLPEYTVTQESGPAHRKEFTMTCRVERFIEIGSGTSKKLAKRNAAAKMLLRVHTVPLDARDGNEVEPDDDHFSIGVGSRLDGLRNRGPGCTWDSLRNSVGEKILSLRSCSLGSLGALGPACCRVLSELSEEQAFHVSYLDIEELSLSGLCQCLVELSTQPATVCHGSATTREAARGEAARRALQYLKIMAGSK
binding: binds
